Data reported in patent publication US9686990B2, “Spiroindolinepiperidine derivatives” (priority 2002, dated 2017).
Some of these results come from one statement about several compounds together.

Legend:
[1] = system: Heliothis virescens (Tobacco Budworm); assay: Heliothis virescens egg/larva test on artificial diet; format: in vivo; conditions: 200 ppm by pipetting, eggs 0-24 h old on artificial diet, 4 days incubation; egg mortality, larval mortality, growth regulation
[2] = system: Aedes aegypti (Yellow Fever Mosquito); format: in vivo; conditions: 2 ppm, L2 larvae with nutrition mixture, 2 days; mortality and growth inhibition
Procedure: Test against were performed as follows:
Bean leaf discs on agar in 24-well microtiter plates wer sprayed with test solutions at an application rate of 200 ppm. After drying, the leaf discs are infested with mite populations of mixed ages. 8 days later, discs are checked for egg mortality, larval mortality, and adult mortality. […] Aedes aegypti (Yellow Fever Mosquito): 10-15 Aedes larvae (L2) together with a nutrition mixture are placed in 96-well microtiter plates. Test solutions at an application rate of 2 ppm are pipetted into the wells. 2 days later, insects were checked for mortality and growth inhibition.

O=C(c1ccnc(Cl)c1)N1CC2(CCN(C/C=C/c3ccc(F)cc3)CC2)c2ccccc21 [Compound I-3]
control of Heliothis virescens [1]: at least 80%

O=C(c1ccnc(Cl)c1)N1CC2(CCN(C/C=C/c3ccccc3)CC2)c2cc(Cl)c(Cl)cc21 [Compound I-171]
control of Heliothis virescens [1]: at least 80%

O=C(c1ccnc(Cl)c1)N1CC2(CCN(C/C=C/c3ccc(Cl)cc3)CC2)c2cc(OC(F)(F)F)ccc21 [Compound I-292]
control of Heliothis virescens [1]: at least 80%

CC(=O)N1CC2(CCN(C/C=C/c3ccccc3)CC2)c2cc(Cl)ccc21 [Compound V-21]
control of Heliothis virescens [1]: at least 80%

CC(=O)N1CC2(CCN(C/C=C/c3ccc(Cl)cc3)CC2)c2cc(F)ccc21 [Compound V-62]
control of Heliothis virescens [1]: at least 80%

COc1ccc2c(c1)C1(CCN(C/C=C/c3ccc(Cl)cc3)CC1)CN2C(C)=O [Compound V-192]
control of Heliothis virescens [1]: at least 80%

CC(=O)N1CC2(CCN(C/C=C/c3ccc(Cl)cc3)CC2)c2cc(C)ccc21 [Compound V-202]
control of Heliothis virescens [1]: at least 80%

COC(=O)N1CC2(CCN(C(=O)/C=C/c3ccc(Cl)cc3)CC2)c2cc(-c3ccc(C(F)(F)F)cc3)ccc21 [II-301]
control of Heliothis virescens [1]: at least 80%

CS(=O)(=O)N1CC2(CCN(C/C=C/c3ccc(Cl)cc3)CC2)c2cc(F)ccc21 [IX-62]
control of Heliothis virescens [1]: at least 80%

O=C(c1ccncc1)N1CC2(CCN(C/C=C/c3ccccc3)CC2)c2ccccc21 [VI-1]
control of Heliothis virescens [1]: at least 80%

O=C(c1ccncc1)N1CC2(CCN(C/C=C/c3ccccc3)CC2)c2cc(Br)ccc21 [VI-101]
control of Heliothis virescens [1]: at least 80%

Cc1ccc2c(c1)C1(CCN(C/C=C/c3ccc(Cl)cc3)CC1)CN2C(=O)c1ccc(S(C)(=O)=O)cc1 [XVIII-202]
control of Heliothis virescens [1]: at least 80%

O=C(c1ccnc(Cl)c1)N1CC2(CCN(Cc3nc4ccccc4o3)CC2)c2cc(Cl)ccc21 [XXIX-1]
control of Heliothis virescens [1]: at least 80%

CC(=Cc1ccc2c(c1)OCO2)CN1CCC2(CC1)CN(C(=O)c1ccnc(Cl)c1)c1ccc(Cl)cc12 [XXIX-7]
control of Heliothis virescens [1]: at least 80%

Cc1ccc(C(=O)CN2CCC3(CC2)CN(C(=O)c2ccnc(Cl)c2)c2ccc(Cl)cc23)c(Cl)c1 [XXIX-31]
control of Aedes aegypti [2]: at least 80%

O=C(c1ccccc1)C(c1ccccc1)N1CCC2(CC1)CN(C(=O)c1ccnc(Cl)c1)c1ccc(Cl)cc12 (stereo not drawn) [XXIX-37]
control of Aedes aegypti [2]: at least 80%

FC(F)(F)c1ccc(N2CC3(CCN(C/C=C/c4ccc(Cl)cc4)CC3)c3cc(Cl)ccc32)nc1 [XXIX-57]
control of Heliothis virescens [1]: at least 80%

Clc1ccc(/C=C/CN2CCC3(CC2)CN(c2ncccn2)c2ccc(Cl)cc23)cc1 [XXIX-63]
control of Heliothis virescens [1]: at least 80%

O=C(c1cnccn1)N1CC2(CCN(C/C=C/c3ccc(Cl)cc3)CC2)c2cc(Cl)ccc21 [XXIX-69]
control of Aedes aegypti [2]: at least 80%

O=C(c1csnn1)N1CC2(CCN(C/C=C/c3ccc(Cl)cc3)CC2)c2cc(Cl)ccc21 [XXIX-81]
control of Heliothis virescens [1]: at least 80%

Cc1nc(C(F)(F)F)ccc1C(=O)N1CC2(CCN(C/C=C/c3ccc(Cl)cc3)CC2)c2cc(Cl)ccc21 [XXIX-105]
control of Aedes aegypti [2]: at least 80%

Cc1cc(C(=O)N2CC3(CCN(C/C=C/c4ccc(Cl)cc4)CC3)c3cc(Cl)ccc32)no1 [XXIX-111]
control of Heliothis virescens [1]: at least 80%

CC(=O)Nc1ccc(S(=O)(=O)N2CC3(CCN(C/C=C/c4ccc(Cl)cc4)CC3)c3cc(Cl)ccc32)cc1 [XXIX-141]
control of Heliothis virescens [1]: at least 80%

Cc1noc(C)c1S(=O)(=O)N1CC2(CCN(C/C=C/c3ccc(Cl)cc3)CC2)c2cc(Cl)ccc21 [XXIX-147]
control of Heliothis virescens [1]: at least 80%

COc1ccccc1NC(=O)N1CC2(CCN(C/C=C/c3ccc(Cl)cc3)CC2)c2cc(Cl)ccc21 [XXIX-153]
control of Heliothis virescens [1]: at least 80%

O=C(c1cc2ccccc2s1)N1CC2(CCN(C/C=C/c3ccc(Cl)cc3)CC2)c2cc(F)ccc21 [XXIX-171]
control of Heliothis virescens [1]: at least 80%

C#Cc1ccc2c(c1)C1(CCN(C/C=C/c3ccc(Cl)cc3)CC1)CN2 [XXV-222]
control of Heliothis virescens [1]: at least 80%

CC(=O)N1CC2(CCN(C/C=C/c3ccc(Cl)cc3)CC2)c2ccc(OC(F)(F)F)cc21 [XXX-1]
control of Heliothis virescens [1]: at least 80%

CC(=O)N1CC2(CCN(C/C=C/c3ccc(Cl)cc3)CC2)c2cccc(Oc3ccccc3)c21 [XXX-9]
control of Heliothis virescens [1]: at least 80%

O=C(c1cccnc1)N1CC2(CCN(C/C=C/c3ccc(Cl)cc3)CC2)c2ccc(OC(F)(F)F)cc21 [XXX-14]
control of Heliothis virescens [1]: at least 80%

O=C(c1cc(Br)nc(Br)c1)N1CC2(CCN(C/C=C/c3ccc(Cl)cc3)CC2)c2ccc(OC(F)(F)C(F)F)cc21 [XXX-21]
control of Heliothis virescens [1]: at least 80%

COc1cc(OC)nc(C(=O)N2CC3(CCN(C/C=C/c4ccc(Cl)cc4)CC3)c3c(OC(F)(F)F)cccc32)n1 [XXX-23]
control of Heliothis virescens [1]: at least 80%

O=C(c1ccnc(Cl)c1)N1CC2(CCN(C/C=C/c3ccc(Cl)cc3)CC2)c2cc(Oc3ccc(C(F)(F)F)cc3)ccc21 [XXX-29]
control of Heliothis virescens [1]: at least 80%

O=C(c1ccnc(Cl)c1)N1CC2(CCN(C/C=C/c3ccc(Cl)cc3Cl)CC2)c2cc(Cl)ccc21 [XXX-32]
control of Heliothis virescens [1]: at least 80%

CC(=O)N1CC2(CCN(C/C=C/c3ccc(Cl)cc3)CC2)c2cc(Cl)cc(Cl)c21 [XXX-33]
control of Heliothis virescens [1]: at least 80%

Cc1ccc(C)c2c1N(C(=O)c1ccnc(Cl)c1)CC21CCN(C/C=C/c2ccc(Cl)cc2)CC1 [XXX-37]
control of Heliothis virescens [1]: at least 80%

O=C(c1ccnc(Cl)c1)N1CC2(CCN(C/C=C/c3ccc(Cl)cc3)CC2)c2c(Cl)cc(Cl)cc21 [XXX-40]
control of Heliothis virescens [1]: at least 80%

O=C(c1ccnc(Cl)c1)N1CC2(CCN(C/C=C/c3ccc(Cl)cc3)CC2)c2cccc(Br)c21 [XXX-47]
control of Aedes aegypti [2]: at least 80%

O=C(c1ccnc(Cl)c1)N1CC2(CCN(C/C=C/c3ccc(Cl)cc3)CC2)c2cc(Cl)ccc21 [XXX-54]
control of Heliothis virescens [1]: at least 80%

O=C(c1ccnc(Cl)c1)N1CC2(CCN(C/C=C/c3cc(C(F)(F)F)cc(C(F)(F)F)c3)CC2)c2cc(Cl)ccc21 [XXX-56]
control of Heliothis virescens [1]: at least 80%

CCOc1cccc(/C=C/CN2CCC3(CC2)CN(C(=O)c2ccnc(Cl)c2)c2ccc(Cl)cc23)c1 [XXX-58]
control of Heliothis virescens [1]: at least 80%

O=C(c1ccnc(Cl)c1)N1CC2(CCN(C/C=C/c3ccccc3Br)CC2)c2cc(Cl)ccc21 [XXX-64]
control of Heliothis virescens [1]: at least 80%

O=C(c1ccnc(Cl)c1)N1CC2(CCN(C/C=C/c3ccc(-c4ccccc4)c(F)c3)CC2)c2cc(Cl)ccc21 [XXX-71]
control of Heliothis virescens [1]: at least 80%

O=C(c1ccnc(Cl)c1)N1CC2(CCN(C/C=C/c3cccc(Br)c3)CC2)c2cc(Cl)ccc21 [XXX-73]
control of Heliothis virescens [1]: at least 80%

O=C(c1ccnc(Cl)c1)N1CC2(CCN(C/C=C/c3ccc(F)cc3)CC2)c2cc(Cl)ccc21 [XXX-74]
control of Heliothis virescens [1]: at least 80%

O=C(c1ccnc(Cl)c1)N1CC2(CCN(C/C=C/c3ccc(F)cc3F)CC2)c2cc(Cl)ccc21 [XXX-77]
control of Heliothis virescens [1]: at least 80%

Cc1cc(/C=C/CN2CCC3(CC2)CN(C(=O)c2ccnc(Cl)c2)c2ccc(Cl)cc23)ccc1F [XXX-80]
control of Heliothis virescens [1]: at least 80%

O=C(c1ccnc(Cl)c1)N1CC2(CCN(C/C=C/c3ccc(-c4ccccc4)cc3)CC2)c2cc(Cl)ccc21 [XXX-81]
control of Heliothis virescens [1]: at least 80%

CC(=O)N1CC2(CCN(C/C=C(\C)c3ccc(F)cc3)CC2)c2cc(Cl)ccc21 [XXX-85]
control of Heliothis virescens [1]: at least 80%

O=C(c1ccnc(Cl)c1)N1CC2(CCN(C/C=C(/c3ccc(Cl)cc3)C(F)(F)F)CC2)c2cc(Cl)ccc21 [XXX-91]
control of Heliothis virescens [1]: at least 80%

CC(=O)N1CC2(CCN(C/C=C(/c3ccc(Cl)cc3)C(F)(F)F)CC2)c2cc(Cl)ccc21 [XXX-92]
control of Heliothis virescens [1]: at least 80%

CC(=O)N1CC2(CCN(C/C=C/c3ccc([N+](=O)[O-])cc3)CC2)c2cc(Cl)ccc21 [XXX-96]
control of Heliothis virescens [1]: at least 80%

O=C(Nc1ccc(OC(F)(F)F)cc1)NN1CC2(CCN(C/C=C/c3ccc(Cl)cc3)CC2)c2cc(F)ccc21 [XXX-100]
control of Heliothis virescens [1]: at least 80%

O=C(NCCN1CCOCC1)N1CC2(CCN(C/C=C/c3ccc(Cl)cc3)CC2)c2cc(F)ccc21 [XXX-108]
control of Heliothis virescens [1]: at least 80%

CC(=O)N1CC2(CCN(C/C=C/c3ccc(Cl)cc3)CC2)c2cc3c(cc21)OC(F)(F)O3 [XXX-116]
control of Heliothis virescens [1]: at least 80%

O=C(c1ccnc(Cl)c1)N1CC2(CCN(C/C=C/c3cccs3)CC2)c2cc(Cl)ccc21 [XXXI-3]
control of Heliothis virescens [1]: at least 80%

O=C(c1ccnc(Cl)c1)N1CC2(CCN(C/C=C/c3cc4ccccc4s3)CC2)c2cc(Cl)ccc21 [XXXI-6]
control of Heliothis virescens [1]: at least 80%

O=C(c1ccnc(Cl)c1)N1CC2(CCN(Cc3ccc(F)cc3)CC2)c2cc(Cl)ccc21 [XXXII-1]
control of Heliothis virescens [1]: at least 80%

O=C(c1ccnc(Cl)c1)N1CC2(CCN(Cc3ccc(OC(F)(F)F)cc3)CC2)c2cc(Cl)ccc21 [XXXII-2]
control of Heliothis virescens [1]: at least 80%

O=C(c1ccnc(Cl)c1)N1CC2(CCN(Cc3ccc(Cl)cc3)CC2)c2cc(Cl)ccc21 [XXXII-3]
control of Heliothis virescens [1]: at least 80%

O=C(c1ccnc(Cl)c1)N1CC2(CCN(CC(O)COc3ccc(Cl)cc3)CC2)c2cc(Cl)ccc21 (stereo not drawn) [XXXII-5]
control of Heliothis virescens [1]: at least 80%

CC(CN1CCC2(CC1)CN(C(=O)c1ccnc(Cl)c1)c1ccc(Cl)cc12)=NOc1ccccc1 [XXXII-6]
control of Heliothis virescens [1]: at least 80%

CC(C)OC(=O)Nc1ccc(CN2CCC3(CC2)CN(C(=O)c2ccnc(Cl)c2)c2ccc(Cl)cc23)cc1 [XXXII-8]
control of Heliothis virescens [1]: at least 80%
